Measured values reported in patent publication US20100048652A1, “INSECTICIDAL COMPOUNDS” (SYNGENTA CROP PROTECTION, INC., priority 2006, published 2010).
Some of these results come from one statement about several compounds together.

How the values were obtained:
Type in all cases: in vivo
[1] = system: Diabrotica balteata; experiment: Diabrotica balteata (corn root worm) larval test on artificial diet; details: 200 ppm (concentration in well 18 ppm), L2 larvae, 5 days, larval mortality, growth regulation
[2] = system: Heliothis virescens; experiment: Heliothis virescens (tobacco budworm) egg test on artificial diet; details: 200 ppm (concentration in well 18 ppm), eggs 0-24 h old on artificial diet, 4 days; egg mortality, larval mortality, growth regulation
[3] = system: Plutella xylostella; experiment: Plutella xylostella (diamond back moth) larval test on artificial diet; details: 200 ppm (concentration in well 18 ppm), L2 larvae, 6 days, larval mortality, growth regulation
[4] = system: Spodoptera littoralis; experiment: Spodoptera littoralis (Egyptian cotton leafworm) leaf disc spray test; details: 200 ppm sprayed on cotton leaf discs, L1 larvae, 3 days after treatment; mortality, feeding behaviour, growth regulation

Cc1cc(C2(C(F)(F)F)CC(c3ccc(F)cc3)=NO2)ccc1NC(=O)c1cccc(NC(=O)c2ccc(C#N)cc2)c1 (stereo not drawn) [Compound A1]
at least 80%: control of Diabrotica balteata [1] | control of Heliothis virescens [2]

Cc1cc(C2(C(F)(F)F)CC(c3ccc(C(F)(F)F)cc3)=NO2)cc(C)c1NC(=O)c1cccc(NC(=O)c2ccc(F)cc2)c1 (stereo not drawn) [Compound A7]
at least 80%: control of Diabrotica balteata [1] | control of Heliothis virescens [2] | control of Plutella xylostella [3] | control of Spodoptera littoralis [4]

Cc1cc(C2(C(F)(F)F)CC(c3ccc(C(F)(F)F)cc3)=NO2)cc(C)c1NC(=O)c1cccc(NC(=O)c2cccc(F)c2F)c1 (stereo not drawn) [Compound A10]
at least 80%: control of Diabrotica balteata [1] | control of Heliothis virescens [2] | control of Plutella xylostella [3] | control of Spodoptera littoralis [4]

Cc1cc(C2(C(F)(F)F)CC(c3ccc(Cl)cc3)=NO2)cc(C)c1NC(=O)c1cccc(NC(=O)c2ncc(C(F)(F)F)cc2Cl)c1 (stereo not drawn) [Compound A20]
at least 80%: control of Diabrotica balteata [1] | control of Heliothis virescens [2] | control of Plutella xylostella [3]

Cc1cc(C2(C(F)(F)F)CC(c3ccc(F)cc3)=NO2)cc(C)c1NC(=O)c1cccc(NC(=O)c2ccc(C(F)(F)F)cc2)c1 (stereo not drawn) [Compound A30, 4-trifluoromethyl-benzoic acid 3-{4-[3-(4-fluoro-phenyl)-5-trifluoromethyl-4,5-dihydro-isoxazol-5-yl]-2,6-dimethyl-phenylcarbamoyl}-phenyl amide]
at least 80%: control of Diabrotica balteata [1] | control of Heliothis virescens [2]
